These are yes or no findings as the source states them, for the method shown. Binding seen in cells or lysates may run through a third protein. Binding calls can cover weak binding; strength is not graded here. Where a sequence is shown, tags or fusion partners need not be part of it.

Consider two molecules from doi:10.1101/2025.02.12.637793.

One experiment has as its target T1, NHE2-GFP (human) (UniProt Q9UBY0).
T1 sequence: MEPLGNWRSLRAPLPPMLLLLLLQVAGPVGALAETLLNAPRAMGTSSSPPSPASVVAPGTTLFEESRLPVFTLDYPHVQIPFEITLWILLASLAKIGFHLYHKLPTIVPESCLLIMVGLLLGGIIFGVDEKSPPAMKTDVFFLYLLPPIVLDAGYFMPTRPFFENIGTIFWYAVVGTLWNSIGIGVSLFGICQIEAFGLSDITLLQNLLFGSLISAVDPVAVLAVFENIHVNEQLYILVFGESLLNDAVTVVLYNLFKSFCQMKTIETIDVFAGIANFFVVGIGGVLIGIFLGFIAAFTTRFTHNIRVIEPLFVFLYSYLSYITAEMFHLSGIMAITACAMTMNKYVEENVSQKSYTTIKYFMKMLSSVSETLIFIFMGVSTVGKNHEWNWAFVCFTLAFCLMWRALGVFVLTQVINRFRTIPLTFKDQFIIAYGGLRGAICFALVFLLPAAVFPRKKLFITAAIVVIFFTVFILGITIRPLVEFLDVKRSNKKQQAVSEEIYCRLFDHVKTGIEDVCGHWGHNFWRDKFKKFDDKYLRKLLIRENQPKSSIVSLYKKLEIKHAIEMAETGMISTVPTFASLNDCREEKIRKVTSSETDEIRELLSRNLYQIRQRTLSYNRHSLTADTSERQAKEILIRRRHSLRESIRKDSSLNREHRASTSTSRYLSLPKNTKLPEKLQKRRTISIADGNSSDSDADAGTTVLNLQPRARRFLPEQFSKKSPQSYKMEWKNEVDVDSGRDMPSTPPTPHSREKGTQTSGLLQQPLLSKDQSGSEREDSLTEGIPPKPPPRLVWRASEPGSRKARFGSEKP
Briefly: co-IP.

The target of another experiment is cystinosin-DsRed (human). Briefly: co-IP.

As for cystinosin-DsRed (human), in the experiment with NHE2-GFP (human), the binding result is listed as “binds”.

B1: NHE2-GFP (protein, UniProt Q9UBY0 1-812)
chain: MEPLGNWRSLRAPLPPMLLLLLLQVAGPVGALAETLLNAPRAMGTSSSPPSPASVVAPGTTLFEESRLPVFTLDYPHVQIPFEITLWILLASLAKIGFHLYHKLPTIVPESCLLIMVGLLLGGIIFGVDEKSPPAMKTDVFFLYLLPPIVLDAGYFMPTRPFFENIGTIFWYAVVGTLWNSIGIGVSLFGICQIEAFGLSDITLLQNLLFGSLISAVDPVAVLAVFENIHVNEQLYILVFGESLLNDAVTVVLYNLFKSFCQMKTIETIDVFAGIANFFVVGIGGVLIGIFLGFIAAFTTRFTHNIRVIEPLFVFLYSYLSYITAEMFHLSGIMAITACAMTMNKYVEENVSQKSYTTIKYFMKMLSSVSETLIFIFMGVSTVGKNHEWNWAFVCFTLAFCLMWRALGVFVLTQVINRFRTIPLTFKDQFIIAYGGLRGAICFALVFLLPAAVFPRKKLFITAAIVVIFFTVFILGITIRPLVEFLDVKRSNKKQQAVSEEIYCRLFDHVKTGIEDVCGHWGHNFWRDKFKKFDDKYLRKLLIRENQPKSSIVSLYKKLEIKHAIEMAETGMISTVPTFASLNDCREEKIRKVTSSETDEIRELLSRNLYQIRQRTLSYNRHSLTADTSERQAKEILIRRRHSLRESIRKDSSLNREHRASTSTSRYLSLPKNTKLPEKLQKRRTISIADGNSSDSDADAGTTVLNLQPRARRFLPEQFSKKSPQSYKMEWKNEVDVDSGRDMPSTPPTPHSREKGTQTSGLLQQPLLSKDQSGSEREDSLTEGIPPKPPPRLVWRASEPGSRKARFGSEKP
Turning to B1, the binding entry with cystinosin-DsRed (human) is given as “binds”.
